Measurements reported in the supplement of paper PMC10849652.
This is one part of the list.

Protein sequences, listed by entry. Tags and fused reporters are not part of them. Lines headed by an entry give the natural chain unless they say otherwise; changes in a name come on top.
UniProt Q14691: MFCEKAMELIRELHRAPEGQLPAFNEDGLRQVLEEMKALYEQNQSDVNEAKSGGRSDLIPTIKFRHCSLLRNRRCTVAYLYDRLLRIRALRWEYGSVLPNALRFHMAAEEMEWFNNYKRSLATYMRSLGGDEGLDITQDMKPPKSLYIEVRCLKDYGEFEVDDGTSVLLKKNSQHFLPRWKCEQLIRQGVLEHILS
UniProt Q14344, whole entry, looked up: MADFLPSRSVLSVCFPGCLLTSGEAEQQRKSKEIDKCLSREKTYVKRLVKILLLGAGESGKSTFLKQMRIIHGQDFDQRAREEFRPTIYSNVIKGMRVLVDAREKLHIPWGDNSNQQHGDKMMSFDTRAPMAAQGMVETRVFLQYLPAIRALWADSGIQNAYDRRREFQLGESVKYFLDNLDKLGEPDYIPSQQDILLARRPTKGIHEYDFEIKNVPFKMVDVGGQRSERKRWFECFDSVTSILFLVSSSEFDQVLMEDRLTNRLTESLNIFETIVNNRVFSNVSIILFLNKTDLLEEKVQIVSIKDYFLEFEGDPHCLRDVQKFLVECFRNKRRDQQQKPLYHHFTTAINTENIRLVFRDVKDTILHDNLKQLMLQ
UniProt Q92990: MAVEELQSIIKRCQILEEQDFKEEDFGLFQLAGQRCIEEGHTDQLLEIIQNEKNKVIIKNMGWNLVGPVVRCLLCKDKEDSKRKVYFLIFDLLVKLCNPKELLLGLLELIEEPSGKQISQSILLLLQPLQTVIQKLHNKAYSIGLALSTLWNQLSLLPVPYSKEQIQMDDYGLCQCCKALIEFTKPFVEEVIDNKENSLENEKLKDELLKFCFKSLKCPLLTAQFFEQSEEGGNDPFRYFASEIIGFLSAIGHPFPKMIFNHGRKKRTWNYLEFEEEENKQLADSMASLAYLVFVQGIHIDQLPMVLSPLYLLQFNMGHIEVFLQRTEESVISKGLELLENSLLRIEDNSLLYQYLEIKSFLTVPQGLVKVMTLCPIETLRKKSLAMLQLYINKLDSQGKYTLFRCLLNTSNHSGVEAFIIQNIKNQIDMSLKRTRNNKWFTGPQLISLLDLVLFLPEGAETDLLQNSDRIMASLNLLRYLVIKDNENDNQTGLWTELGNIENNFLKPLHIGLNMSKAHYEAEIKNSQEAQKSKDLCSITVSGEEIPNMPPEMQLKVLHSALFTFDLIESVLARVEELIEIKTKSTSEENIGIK
UniProt P17900: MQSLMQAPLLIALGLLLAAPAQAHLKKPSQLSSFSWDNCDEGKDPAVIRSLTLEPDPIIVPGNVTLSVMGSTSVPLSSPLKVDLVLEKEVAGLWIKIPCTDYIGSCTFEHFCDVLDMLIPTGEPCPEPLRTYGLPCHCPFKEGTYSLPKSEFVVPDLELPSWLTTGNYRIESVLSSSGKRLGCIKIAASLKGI
UniProt Q9HCN4, whole entry, looked up: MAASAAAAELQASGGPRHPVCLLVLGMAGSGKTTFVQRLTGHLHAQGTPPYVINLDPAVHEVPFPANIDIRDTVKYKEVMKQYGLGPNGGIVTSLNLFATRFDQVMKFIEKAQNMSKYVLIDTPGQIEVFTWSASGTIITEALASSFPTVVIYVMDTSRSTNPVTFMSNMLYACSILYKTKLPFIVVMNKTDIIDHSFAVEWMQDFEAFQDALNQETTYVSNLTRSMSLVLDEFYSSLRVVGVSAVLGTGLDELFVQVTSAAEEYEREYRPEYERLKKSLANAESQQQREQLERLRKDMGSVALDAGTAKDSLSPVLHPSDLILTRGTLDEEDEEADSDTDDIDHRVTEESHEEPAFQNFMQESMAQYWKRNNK
UniProt O14653: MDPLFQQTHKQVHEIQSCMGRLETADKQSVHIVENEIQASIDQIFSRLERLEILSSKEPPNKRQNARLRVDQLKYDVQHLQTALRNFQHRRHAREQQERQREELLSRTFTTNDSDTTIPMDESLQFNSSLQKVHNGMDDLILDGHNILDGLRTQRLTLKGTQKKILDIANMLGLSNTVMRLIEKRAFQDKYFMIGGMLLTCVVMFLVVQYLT
UniProt P46926: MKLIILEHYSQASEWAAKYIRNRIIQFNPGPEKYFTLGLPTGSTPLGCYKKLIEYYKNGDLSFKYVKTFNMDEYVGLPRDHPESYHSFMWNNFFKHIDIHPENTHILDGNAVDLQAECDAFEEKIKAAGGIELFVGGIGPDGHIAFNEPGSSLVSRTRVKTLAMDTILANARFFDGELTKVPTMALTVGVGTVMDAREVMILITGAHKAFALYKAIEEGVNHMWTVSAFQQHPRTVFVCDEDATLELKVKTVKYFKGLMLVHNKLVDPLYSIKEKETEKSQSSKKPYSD
UniProt Q8TDQ7: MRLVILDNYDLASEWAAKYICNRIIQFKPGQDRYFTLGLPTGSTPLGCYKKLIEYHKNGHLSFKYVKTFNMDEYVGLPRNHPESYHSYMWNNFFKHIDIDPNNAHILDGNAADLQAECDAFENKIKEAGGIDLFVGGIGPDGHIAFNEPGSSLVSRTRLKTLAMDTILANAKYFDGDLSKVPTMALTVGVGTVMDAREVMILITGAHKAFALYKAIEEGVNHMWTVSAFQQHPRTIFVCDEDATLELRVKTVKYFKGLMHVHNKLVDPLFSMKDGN
UniProt Q13439: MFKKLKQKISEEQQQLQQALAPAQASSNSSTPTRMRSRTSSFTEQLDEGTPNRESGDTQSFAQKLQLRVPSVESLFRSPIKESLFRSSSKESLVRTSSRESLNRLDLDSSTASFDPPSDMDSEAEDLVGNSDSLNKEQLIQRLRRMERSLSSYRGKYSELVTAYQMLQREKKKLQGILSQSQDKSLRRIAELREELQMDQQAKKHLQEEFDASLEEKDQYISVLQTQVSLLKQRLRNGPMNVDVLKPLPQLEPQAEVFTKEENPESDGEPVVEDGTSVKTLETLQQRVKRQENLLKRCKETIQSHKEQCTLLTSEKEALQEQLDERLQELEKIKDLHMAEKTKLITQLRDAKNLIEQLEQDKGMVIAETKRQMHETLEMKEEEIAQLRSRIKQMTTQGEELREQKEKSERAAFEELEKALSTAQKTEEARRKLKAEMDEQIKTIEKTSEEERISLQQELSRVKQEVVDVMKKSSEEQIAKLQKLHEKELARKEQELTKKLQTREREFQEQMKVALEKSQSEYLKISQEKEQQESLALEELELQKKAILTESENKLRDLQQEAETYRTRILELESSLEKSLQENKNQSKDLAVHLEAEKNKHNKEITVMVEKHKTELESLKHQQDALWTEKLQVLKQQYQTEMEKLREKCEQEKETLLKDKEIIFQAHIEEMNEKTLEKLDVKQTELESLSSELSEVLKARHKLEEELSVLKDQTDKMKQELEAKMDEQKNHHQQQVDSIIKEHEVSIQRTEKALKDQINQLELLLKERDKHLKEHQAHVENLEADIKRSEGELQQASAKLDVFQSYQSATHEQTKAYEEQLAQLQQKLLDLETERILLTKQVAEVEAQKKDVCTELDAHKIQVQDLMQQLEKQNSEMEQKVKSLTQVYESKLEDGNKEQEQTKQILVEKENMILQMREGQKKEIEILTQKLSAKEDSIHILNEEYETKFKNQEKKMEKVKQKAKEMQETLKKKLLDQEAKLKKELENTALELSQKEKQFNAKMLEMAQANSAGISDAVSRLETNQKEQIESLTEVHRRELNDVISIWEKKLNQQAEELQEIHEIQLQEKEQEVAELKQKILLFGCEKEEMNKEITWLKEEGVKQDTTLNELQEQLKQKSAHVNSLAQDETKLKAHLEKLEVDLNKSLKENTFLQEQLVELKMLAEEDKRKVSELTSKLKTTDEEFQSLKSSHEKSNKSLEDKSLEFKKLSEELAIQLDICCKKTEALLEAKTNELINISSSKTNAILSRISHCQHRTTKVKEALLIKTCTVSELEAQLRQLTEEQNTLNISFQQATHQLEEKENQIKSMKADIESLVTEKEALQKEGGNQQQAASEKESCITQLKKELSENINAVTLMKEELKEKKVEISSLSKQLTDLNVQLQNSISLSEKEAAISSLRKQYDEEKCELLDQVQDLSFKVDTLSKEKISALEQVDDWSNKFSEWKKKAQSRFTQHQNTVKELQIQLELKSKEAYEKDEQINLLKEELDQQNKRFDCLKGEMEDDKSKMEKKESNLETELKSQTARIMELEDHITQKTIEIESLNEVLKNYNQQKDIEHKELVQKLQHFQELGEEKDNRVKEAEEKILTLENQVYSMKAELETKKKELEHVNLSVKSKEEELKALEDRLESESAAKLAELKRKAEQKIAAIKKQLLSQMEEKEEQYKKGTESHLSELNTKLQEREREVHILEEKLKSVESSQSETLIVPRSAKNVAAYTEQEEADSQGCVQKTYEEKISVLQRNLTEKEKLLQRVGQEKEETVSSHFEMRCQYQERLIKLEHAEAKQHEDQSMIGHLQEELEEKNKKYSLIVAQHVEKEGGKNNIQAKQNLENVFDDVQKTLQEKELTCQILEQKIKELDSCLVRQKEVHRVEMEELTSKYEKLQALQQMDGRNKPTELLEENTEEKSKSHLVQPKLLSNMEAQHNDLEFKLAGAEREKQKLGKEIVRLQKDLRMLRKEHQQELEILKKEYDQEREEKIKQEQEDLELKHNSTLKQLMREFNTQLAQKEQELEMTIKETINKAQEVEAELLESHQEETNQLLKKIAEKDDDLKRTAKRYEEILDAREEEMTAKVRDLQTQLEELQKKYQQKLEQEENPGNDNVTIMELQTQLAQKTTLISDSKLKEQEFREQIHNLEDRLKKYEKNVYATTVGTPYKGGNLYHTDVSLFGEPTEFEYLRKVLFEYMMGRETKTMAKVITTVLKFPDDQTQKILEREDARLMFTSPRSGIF
UniProt O00461: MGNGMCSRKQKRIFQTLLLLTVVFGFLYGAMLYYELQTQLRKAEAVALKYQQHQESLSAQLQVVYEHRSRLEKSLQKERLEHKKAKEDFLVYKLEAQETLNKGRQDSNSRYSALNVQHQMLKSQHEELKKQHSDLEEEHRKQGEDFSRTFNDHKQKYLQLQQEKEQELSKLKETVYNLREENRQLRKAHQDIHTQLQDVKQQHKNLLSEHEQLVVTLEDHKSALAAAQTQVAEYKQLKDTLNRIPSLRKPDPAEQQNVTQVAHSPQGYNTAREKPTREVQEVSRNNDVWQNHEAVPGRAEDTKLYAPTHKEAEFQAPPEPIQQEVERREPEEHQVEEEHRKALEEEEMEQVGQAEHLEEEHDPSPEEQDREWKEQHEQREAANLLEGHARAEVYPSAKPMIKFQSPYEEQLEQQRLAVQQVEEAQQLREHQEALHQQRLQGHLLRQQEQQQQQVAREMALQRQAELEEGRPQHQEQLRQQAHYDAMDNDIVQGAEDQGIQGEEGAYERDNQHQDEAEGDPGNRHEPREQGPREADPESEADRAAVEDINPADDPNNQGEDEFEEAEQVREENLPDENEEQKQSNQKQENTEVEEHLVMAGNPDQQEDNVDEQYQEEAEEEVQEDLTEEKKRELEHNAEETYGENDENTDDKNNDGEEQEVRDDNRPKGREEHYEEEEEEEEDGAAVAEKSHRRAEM
UniProt P62993, whole entry, looked up: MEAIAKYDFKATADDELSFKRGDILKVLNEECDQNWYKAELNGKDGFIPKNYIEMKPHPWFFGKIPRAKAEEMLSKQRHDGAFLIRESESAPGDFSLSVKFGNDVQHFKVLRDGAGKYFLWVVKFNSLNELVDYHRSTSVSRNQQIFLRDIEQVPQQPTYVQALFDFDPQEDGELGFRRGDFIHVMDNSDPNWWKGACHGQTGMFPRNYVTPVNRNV
UniProt Q9BXV9: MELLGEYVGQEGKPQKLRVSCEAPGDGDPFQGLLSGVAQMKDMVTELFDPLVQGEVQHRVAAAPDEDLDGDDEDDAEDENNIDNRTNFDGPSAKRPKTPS
UniProt Q9NQX3: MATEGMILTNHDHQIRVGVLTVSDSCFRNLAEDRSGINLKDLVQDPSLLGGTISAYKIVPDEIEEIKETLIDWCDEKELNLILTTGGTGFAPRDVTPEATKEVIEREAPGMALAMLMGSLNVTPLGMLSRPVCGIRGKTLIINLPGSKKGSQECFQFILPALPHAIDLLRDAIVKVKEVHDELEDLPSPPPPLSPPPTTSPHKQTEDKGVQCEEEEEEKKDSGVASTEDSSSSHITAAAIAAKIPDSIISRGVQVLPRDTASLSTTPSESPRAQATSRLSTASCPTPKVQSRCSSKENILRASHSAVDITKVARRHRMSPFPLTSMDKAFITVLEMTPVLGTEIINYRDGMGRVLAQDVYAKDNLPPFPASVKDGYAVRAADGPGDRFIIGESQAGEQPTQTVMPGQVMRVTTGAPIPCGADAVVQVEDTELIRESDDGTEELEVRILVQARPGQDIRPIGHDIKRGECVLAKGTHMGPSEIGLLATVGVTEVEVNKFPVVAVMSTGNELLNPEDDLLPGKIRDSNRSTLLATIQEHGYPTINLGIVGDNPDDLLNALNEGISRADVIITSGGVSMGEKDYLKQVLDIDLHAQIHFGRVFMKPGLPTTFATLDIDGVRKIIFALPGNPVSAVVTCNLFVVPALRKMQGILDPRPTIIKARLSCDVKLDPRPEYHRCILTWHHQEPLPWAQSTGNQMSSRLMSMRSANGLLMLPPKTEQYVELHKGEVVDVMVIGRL

Columns and labels:
Experiment in all cases: log2 fold change, soluble protein after heating vs DMSO (PISA); higher = thermal stabilisation; K562 cells, 10 uM, 30 min; active = over 0.2 and 3.5 SD of the protein, either way, in both replicates (recomputed)
[1] = compound: CN1CCN(CCOc2cc(OC3CCOCC3)c3c(Nc4c(Cl)ccc5c4OCO5)ncnc3c2)CC1 [saracatinib]
Method in brief: (§1)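 Soluble protein was quantified by TMTpro 16plex LC-MS/MS after channel sums were equalised. It was obtained as the supernatant after 21,000xg for 90 min from pooled aliquots of K562 cells (2×10^6 cells/mL, 10 μM compound, 30 min) heated for 3 min across 48°C-58°C and extracted in PBS with 0.5% NP-40 at 4°C. Thermal stability values are relative to control samples and come from duplicates. They are given as log2 fold changes.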

[2] = compound: CN1CCN(c2nc(C3=C(c4c[nH]c5ccccc45)C(=O)NC3=O)c3ccccc3n2)CC1 [sotrastaurin]
Method in brief: as §1

[3] = compound: CN1CC[C@H](c2c(O)cc(O)c3c(=O)cc(-c4ccccc4Cl)oc23)[C@H](O)C1 [alvocidib]
Method in brief: as §1

[4] = compound: CN1CCc2c(c3ccccc3n2Cc2ccc(C(=O)NO)cc2)C1 [Tubastatin A]
Method in brief: as §1

[5] = compound: CNC(=O)C1=CC=CC=C1NC2=NC(=NC=C2Cl)NC3=C(C=C(C=C3)N4CCOCC4)OC
Method in brief: as §1

[6] = compound: CNC(=O)c1ccc(Nc2ncc(C(F)(F)F)c(NCc3nccnc3N(C)S(C)(=O)=O)n2)cc1 [defactinib]
Method in brief: as §1

[7] = compound: CNCc1ccc(-c2[nH]c3cc(F)cc4c3c2CCNC4=O)cc1 [rucaparib]
Method in brief: as §1

[8] = compound: CNc1nc(-c2ccc3c(N)n[nH]c3c2)cc(N2C[C@@H](C(=O)NC3CCCCC3)CC[C@H]2C)n1
Method in brief: as §1

[9] = compound: COC(=O)N[C@@H](C)CNc1nccc(-c2cn(C(C)C)nc2-c2cc(Cl)cc(NS(C)(=O)=O)c2F)n1 [encorafenib]
Method in brief: as §1

[10] = compound: COC(=O)[C@H](CCSC)NC(=O)C1=C(C=C(C=C1)NC[C@H](CS)N)C2=CC=CC=C2
Method in brief: as §1

[11] = compound: COC1=CC=C(C=C1)CN2C=CC3=C2C=C(C=C3)C(=O)NO
Method in brief: as §1

[12] = compound: CON(C)C(=O)N1N=C(c2cc(F)ccc2F)S[C@@]1(CCCN)c1ccccc1 [filanesib]
Method in brief: as §1

[13] = compound: CO[C@H]1C[C@@H]2CC[C@@H](C)[C@@](O)(O2)C(=O)C(=O)N2CCCC[C@H]2C(=O)O[C@H]([C@H](C)C[C@@H]2CC[C@H](n3cnnn3)[C@H](OC)C2)CC(=O)[C@H](C)/C=C(\C)[C@@H](O)[C@@H](OC)C(=O)[C@H](C)C[C@H](C)/C=C/C=C/C=C/1C [zotarolimus]
Method in brief: as §1

[14] = compound: COc1cc(C(=O)O)ccc1NC(=O)[C@@H]1N[C@@H](CC(C)(C)C)[C@](C#N)(c2ccc(Cl)cc2F)[C@H]1c1cccc(Cl)c1F [idasanutlin]
Method in brief: as §1

[15] = compound: COc1cc(Nc2ncc3c(n2)-c2ccc(Cl)cc2C(c2c(F)cccc2OC)=NC3)ccc1C(=O)O [alisertib]
Method in brief: as §1

[16] = compound: COc1cc2nc(-c3cc(F)ccc3O)nc(N[C@@H]3CNC[C@H]3C(C)(C)O)c2cc1OC
Method in brief: as §1

[17] = compound: COc1cc2ncnc(Nc3ccc(F)c(Cl)c3)c2cc1OCCCN1CCOCC1 [gefitinib]
Method in brief: as §1

[18] = compound: COc1cccc2cc(-c3nc([C@H]4CC[C@H](C(=O)O)CC4)n4ncnc(N)c34)[nH]c12
Method in brief: as §1

[19] = compound: CS(=O)(=O)CCNCc1ccc(-c2ccc3ncnc(Nc4ccc(OCc5cccc(F)c5)c(Cl)c4)c3c2)o1 [lapatinib]
Method in brief: as §1

[20] = compound: CS(=O)(=O)N1CCN(Cc2cc3nc(-c4cccc5[nH]ncc45)nc(N4CCOCC4)c3s2)CC1 [pictilisib]
Method in brief: as §1

Measured: log2 fold change

GINS1 (UniProt Q14691)
inactive: [1] 0.046 | [2] 0.063 | [3] -0.047 | [4] -0.02 | [5] -0.044 | [6] -0.057 | [7] 0.013 | [8] 0.038 | [9] 0.019 | [10] -0.021 | [11] 0.025 | [12] -0.038 | [13] 0.031 | [14] 0.01 | [15] 0.027 | [16] -0.034 | [17] 0.031 | [18] -0.072 | [19] 0.087 | [20] -0.092

GNA13 (UniProt Q14344)
inactive: [1] -0.019 | [2] 0.015 | [3] -0.024 | [4] 0.034 | [5] -0.006 | [6] -0.035 | [7] 0.002 | [8] 0.021 | [9] 0 | [10] -0.046 | [11] -0.033 | [12] 0.065 | [13] -0.001 | [14] -0.09 | [15] -0.01 | [16] 0.113 | [17] 0.07 | [18] 0.037 | [19] 0.008 | [20] 0.052

GLMN (UniProt Q92990)
inactive: [1] 0.032 | [2] 0.034 | [3] -0.011 | [4] -0.03 | [5] 0 | [6] -0.024 | [7] 0.006 | [8] -0.002 | [9] 0.006 | [10] 0.06 | [11] -0.014 | [12] -0.007 | [13] -0.184 | [14] -0.098 | [15] -0.012 | [16] 0.001 | [17] 0.007 | [18] 0.021 | [19] 0.017 | [20] -0.038

GM2A (UniProt P17900)
inactive: [1] 0.056 | [2] 0.027 | [3] 0.063 | [4] -0.009 | [5] 0.09 | [6] 0.014 | [7] -0.128 | [8] -0.041 | [9] -0.1 | [10] 0.094 | [11] -0.009 | [12] -0.009 | [13] 0 | [14] 0.041 | [15] 0.198 | [16] -0.012 | [17] 0.088 | [18] -0.02 | [19] 0.004 | [20] 0.083

GOLGA2 (UniProt Q08379)
inactive: [1] -0.091 | [2] -0.173 | [3] 0.066 | [4] 0.042 | [5] 0.037 | [6] 0.002 | [7] 0.17 | [8] 0.031 | [9] 0.133 | [10] -0.003 | [11] -0.044 | [12] 0.139 | [13] 0.097 | [14] 0.109 | [15] 0.137 | [16] 0.073 | [17] 0.008 | [18] -0.104 | [19] -0.019 | [20] -0.002

GPN1 isoform 5 (UniProt Q9HCN4)
inactive: [1] -0.001 | [2] -0.021 | [3] -0.066 | [4] 0.046 | [5] -0.059 | [6] -0.046 | [7] 0.007 | [8] 0.009 | [9] 0.012 | [10] 0.061 | [11] 0.045 | [12] -0.004 | [13] -0.008 | [14] -0.019 | [15] -0.035 | [16] -0.042 | [17] 0.002 | [18] 0.097 | [19] 0.051 | [20] 0.033

GOSR2 isoform 2 (UniProt O14653)
inactive: [1] -0.145 | [2] -0.09 | [3] -0.056 | [4] -0.026 | [5] -0.08 | [6] -0.063 | [7] 0.082 | [8] -0.011 | [9] -0.128 | [10] 0.034 | [11] 0.07 | [12] -0.144 | [13] 0.072 | [14] -0.015 | [15] -0.011 | [16] -0.161 | [17] -0.022 | [18] -0.004 | [19] 0.019 | [20] -0.018

GNPDA1 (UniProt P46926)
inactive: [1] 0.037 | [2] 0.071 | [3] 0.042 | [4] -0.026 | [5] -0.03 | [6] -0.001 | [7] -0.021 | [8] -0.028 | [9] -0.019 | [10] 0.002 | [11] -0.106 | [12] -0.008 | [13] -0.001 | [14] -0.018 | [15] -0.013 | [16] -0.006 | [17] -0.013 | [18] 0.089 | [19] 0.008 | [20] 0.053

GNPDA2 (UniProt Q8TDQ7)
inactive: [1] 0.095 | [2] 0.047 | [3] -0.096 | [4] -0.128 | [5] -0.029 | [6] 0.01 | [7] 0.058 | [8] -0.015 | [9] 0.007 | [10] 0.057 | [11] -0.053 | [12] -0.027 | [13] 0.087 | [14] -0.054 | [15] -0.038 | [16] 0.046 | [17] -0.024 | [18] 0.059 | [19] 0.029 | [20] 0.072

GOLGA4 isoform 5 (UniProt Q13439)
inactive: [1] -0.147 | [2] -0.013 | [3] 0.114 | [4] 0.069 | [5] -0.052 | [6] 0.051 | [7] 0.092 | [8] -0.014 | [9] 0.04 | [10] -0.012 | [11] -0.041 | [12] 0.033 | [13] 0.012 | [14] 0.027 | [15] 0.044 | [16] 0.15 | [17] 0.072 | [18] -0.094 | [19] -0.13 | [20] -0.041

GPAA1 (UniProt O43292)
inactive: [1] -0.051 | [2] -0.021 | [3] -0.064 | [4] -0.01 | [5] -0.01 | [6] -0.035 | [7] -0.06 | [8] -0.009 | [9] 0.048 | [10] -0.025 | [11] -0.014 | [12] -0.015 | [13] 0.025 | [14] -0.061 | [15] -0.041 | [16] 0.085 | [17] -0.024 | [18] 0.002 | [19] -0.024 | [20] 0.004

GOLIM4 (UniProt O00461)
inactive: [1] -0.041 | [2] 0.021 | [3] -0.01 | [4] 0.014 | [5] 0.095 | [6] 0.009 | [7] 0.051 | [8] 0.011 | [9] 0.012 | [10] -0.015 | [11] 0.021 | [12] -0.007 | [13] 0.015 | [14] -0.018 | [15] -0.007 | [16] -0.011 | [17] 0.085 | [18] 0.053 | [19] 0.024 | [20] 0.084

Two successive records out of the list so far, quoted:
GOLGA4 isoform 5 (UniProt Q13439)
inactive: [1] -0.147 | [2] -0.013 | [3] 0.114 | [4] 0.069 | [5] -0.052 | [6] 0.051 | [7] 0.092 | [8] -0.014 | [9] 0.04 | [10] -0.012 | [11] -0.041 | [12] 0.033 | [13] 0.012 | [14] 0.027 | [15] 0.044 | [16] 0.15 | [17] 0.072 | [18] -0.094 | [19] -0.13 | [20] -0.041

GPAA1 (UniProt O43292)
inactive: [1] -0.051 | [2] -0.021 | [3] -0.064 | [4] -0.01 | [5] -0.01 | [6] -0.035 | [7] -0.06 | [8] -0.009 | [9] 0.048 | [10] -0.025 | [11] -0.014 | [12] -0.015 | [13] 0.025 | [14] -0.061 | [15] -0.041 | [16] 0.085 | [17] -0.024 | [18] 0.002 | [19] -0.024 | [20] 0.004

(listing goes on)

GRB2 (UniProt P62993)
inactive: [1] 0.04 | [2] -0.083 | [3] -0.035 | [4] -0.033 | [5] 0 | [6] -0.002 | [7] -0.146 | [8] -0.026 | [9] 0.042 | [10] 0.054 | [11] -0.036 | [12] -0.112 | [13] -0.001 | [14] -0.054 | [15] -0.071 | [16] -0.028 | [17] 0.027 | [18] 0.01 | [19] -0.009 | [20] -0.007

GON7 (UniProt Q9BXV9)
inactive: [1] 0.022 | [2] 0.088 | [3] -0.012 | [4] 0.133 | [5] -0.069 | [6] -0.05 | [7] -0.069 | [8] 0.033 | [9] 0.01 | [10] 0.156 | [11] 0.014 | [12] 0.085 | [13] -0.001 | [14] 0.125 | [15] -0.022 | [16] -0.056 | [17] 0.023 | [18] 0.009 | [19] 0.006 | [20] -0.048

GPHN isoform 2 (UniProt Q9NQX3)
inactive: [1] 0.072 | [2] 0.06 | [3] -0.033 | [4] -0.023 | [5] -0.006 | [6] -0.021 | [7] 0.055 | [8] -0.025 | [9] -0.039 | [10] -0.007 | [11] 0.013 | [12] 0.021 | [13] -0.003 | [14] -0.019 | [15] -0.026 | [16] 0.037 | [17] 0.004 | [18] 0.065 | [19] -0.015 | [20] 0.051
